# This is one part of the list.
# B1: GS7807I-bvu-563-22-563 (Bacteroides vulgatus) (protein)
# chain: IFSSCTDDFEKLNTSNIQVDPADLPFAAQCTEPMTYCYPPQQNMFQFWTNLTIDLYGGYFMTPNGNFTNGDMGENRGHSGGMYENYYLHIFNNTRRIIAQCDASGERGLSGVMRIVQAYGTLMTTDAYGPIPYSSILSGENEVYFEFDSQKDLYKAMLEDLSTAITDISAMGADEIAKLKSFDCWCNGDKDLWVKIANTMKLRMALRLSKRETEAGNAGMNLKAIATEAAQNTLATVNKDILIDKSLENEMWLMFNWGDCGFNANLVTIMSGTKDPRQPLYMTLNTGDIKNEAGTTTVAANSQYLGIRFASGLPAKPNSWGNFSGWIQGNNGSSYSMPLPIMKAAEAYFLLAEAKLRWDIGSESVKNLYENGIRVSMTNELAYRGAYAGIKEYPEGAVDAYINGTSTQIDYTDPIKAELSTPAVNKLSVKWDESASNEEKLERIITQKWLALFPLSTEGWAEQRRTGYPRFFPAFVNESNGAVNTEEGVRRVIYSSQAYDANAKGVEGGIKLLDEENSSKFGISGDKGGTHLWWDNADKGNF
# Assays:
# Assay in all cases: glycan array binding signal (z-score within array); higher = stronger binding
# Settings in all cases: glycan notation: IUPAC condensed, linker removed
# Gal(b1-4)Glc = target: Gal(b1-4)Glc
# Procedure, shortened: (§1)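 Glycan array data came from 3228 arrays in the Consortium for Functional Glycomics database, and only arrays with an available protein sequence were kept. Glycan names were put into IUPAC-condensed notation, and columns mapping to the same glycan were averaged. The binding signal is a within-array Z-score, averaged across arrays of one protein sequence run at different concentrations or buffers and across linkers. A negative Z-score can be read as non-binding.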
# Gal(b1-4)Glc6S = target: Gal(b1-4)Glc6S
# Procedure, shortened: as §1
# Gal(b1-4)GlcNAc = target: Gal(b1-4)GlcNAc
# Procedure, shortened: as §1
# [1] = target: Gal(b1-4)GlcNAc(a1-6)Gal(b1-4)GlcNAc
# Procedure, shortened: as §1
# Gal(b1-4)GlcNAc(b1-2)Man = target: Gal(b1-4)GlcNAc(b1-2)Man
# Procedure, shortened: as §1
# [2] = target: Gal(b1-4)GlcNAc(b1-2)Man(a1-3)Man(b1-4)GlcNAc(b1-4)GlcNAc
# Procedure, shortened: as §1
# [3] = target: Gal(b1-4)GlcNAc(b1-2)Man(a1-3)[Gal(b1-4)GlcNAc(b1-2)Man(a1-6)]Man(b1-4)GlcNAc(b1-4)GlcNAc
# Procedure, shortened: as §1
# [4] = target: Gal(b1-4)GlcNAc(b1-2)Man(a1-3)[Gal(b1-4)GlcNAc(b1-2)Man(a1-6)]Man(b1-4)GlcNAc(b1-4)[Fuc(a1-6)]GlcNAc
# Procedure, shortened: as §1
# [5] = target: Gal(b1-4)GlcNAc(b1-2)Man(a1-3)[Gal(b1-4)GlcNAc(b1-2)Man(a1-6)][Gal(b1-4)GlcNAc(b1-4)]Man(b1-4)GlcNAc(b1-4)[Fuc(a1-6)]GlcNAc
# Procedure, shortened: as §1
# [6] = target: Gal(b1-4)GlcNAc(b1-2)Man(a1-3)[Gal(b1-4)GlcNAc(b1-2)Man(a1-6)][GlcNAc(b1-4)]Man(b1-4)GlcNAc(b1-4)[Fuc(a1-6)]GlcNAc
# Procedure, shortened: as §1
# [7] = target: Gal(b1-4)GlcNAc(b1-2)Man(a1-3)[GlcNAc(b1-2)Man(a1-6)]Man(b1-4)GlcNAc(b1-4)GlcNAc
# Procedure, shortened: as §1
# [8] = target: Gal(b1-4)GlcNAc(b1-2)Man(a1-3)[GlcNAc(b1-4)][Gal(b1-4)GlcNAc(b1-2)Man(a1-6)]Man(b1-4)GlcNAc(b1-4)GlcNAc
# Procedure, shortened: as §1
# [9] = target: Gal(b1-4)GlcNAc(b1-2)Man(a1-3)[Man(a1-6)]Man(b1-4)GlcNAc(b1-4)GlcNAc
# Procedure, shortened: as §1
# [10] = target: Gal(b1-4)GlcNAc(b1-2)Man(a1-6)Man(b1-4)GlcNAc(b1-4)GlcNAc
# Procedure, shortened: as §1
# [11] = target: Gal(b1-4)GlcNAc(b1-2)Man(a1-6)[GlcNAc(b1-2)Man(a1-3)]Man(b1-4)GlcNAc(b1-4)GlcNAc
# Procedure, shortened: as §1
# [12] = target: Gal(b1-4)GlcNAc(b1-2)Man(a1-6)[Man(a1-3)]Man(b1-4)GlcNAc(b1-4)GlcNAc
# Procedure, shortened: as §1
# [13] = target: Gal(b1-4)GlcNAc(b1-2)[Gal(b1-4)GlcNAc(b1-4)]Man(a1-3)[Gal(b1-4)GlcNAc(b1-2)Man(a1-6)]Man(b1-4)GlcNAc(b1-4)GlcNAc
# Procedure, shortened: as §1
# [14] = target: Gal(b1-4)GlcNAc(b1-2)[Gal(b1-4)GlcNAc(b1-4)]Man(a1-3)[Gal(b1-4)GlcNAc(b1-2)[Gal(b1-4)GlcNAc(b1-6)]Man(a1-6)]Man(b1-4)GlcNAc(b1-4)GlcNAc
# Procedure, shortened: as §1
# [15] = target: Gal(b1-4)GlcNAc(b1-2)[Gal(b1-4)GlcNAc(b1-4)]Man(a1-3)[GlcNAc(b1-4)][Gal(b1-4)GlcNAc(b1-2)Man(a1-6)]Man(b1-4)GlcNAc(b1-4)GlcNAc
# Procedure, shortened: as §1
# [16] = target: Gal(b1-4)GlcNAc(b1-2)[Gal(b1-4)GlcNAc(b1-4)]Man(a1-3)[GlcNAc(b1-4)][Gal(b1-4)GlcNAc(b1-2)[Gal(b1-4)GlcNAc(b1-6)]Man(a1-6)]Man(b1-4)GlcNAc(b1-4)GlcNAc
# Procedure, shortened: as §1
# [17] = target: Gal(b1-4)GlcNAc(b1-2)[Gal(b1-4)GlcNAc(b1-6)]Man(a1-6)[Gal(b1-4)GlcNAc(b1-2)Man(a1-3)]Man(b1-4)GlcNAc(b1-4)GlcNAc
# Procedure, shortened: as §1
# [18] = target: Gal(b1-4)GlcNAc(b1-2)[Gal(b1-4)GlcNAc(b1-6)]Man(a1-6)[Gal(b1-4)GlcNAc(b1-2)Man(a1-3)]Man(b1-4)GlcNAc(b1-4)[Fuc(a1-6)]GlcNAc
# Procedure, shortened: as §1
# [19] = target: Gal(b1-4)GlcNAc(b1-2)[Gal(b1-4)GlcNAc(b1-6)]Man(a1-6)[GlcNAc(b1-4)][Gal(b1-4)GlcNAc(b1-2)Man(a1-3)]Man(b1-4)GlcNAc(b1-4)GlcNAc
# Procedure, shortened: as §1
# [20] = target: Gal(b1-4)GlcNAc(b1-2)[Gal(b1-4)GlcNAc(b1-6)]Man(a1-6)[GlcNAc(b1-4)][Gal(b1-4)GlcNAc(b1-2)[Gal(b1-4)GlcNAc(b1-4)]Man(a1-3)]Man(b1-4)GlcNAc(b1-4)[Fuc(a1-6)]GlcNAc
# Procedure, shortened: as §1
# [21] = target: Gal(b1-4)GlcNAc(b1-3)Gal(b1-3)GalNAc
# Procedure, shortened: as §1
# [22] = target: Gal(b1-4)GlcNAc(b1-3)Gal(b1-3)GlcNAc
# Procedure, shortened: as §1
# [23] = target: Gal(b1-4)GlcNAc(b1-3)Gal(b1-4)Glc
# Procedure, shortened: as §1
# [24] = target: Gal(b1-4)GlcNAc(b1-3)Gal(b1-4)GlcNAc
# Procedure, shortened: as §1
# [25] = target: Gal(b1-4)GlcNAc(b1-3)Gal(b1-4)GlcNAc(b1-2)Man(a1-3)[Gal(b1-4)GlcNAc(b1-3)Gal(b1-4)GlcNAc(b1-2)Man(a1-6)]Man(b1-4)GlcNAc(b1-4)GlcNAc
# Procedure, shortened: as §1
# [26] = target: Gal(b1-4)GlcNAc(b1-3)Gal(b1-4)GlcNAc(b1-2)Man(a1-3)[Gal(b1-4)GlcNAc(b1-3)Gal(b1-4)GlcNAc(b1-2)Man(a1-6)]Man(b1-4)GlcNAc(b1-4)[Fuc(a1-6)]GlcNAc
# Procedure, shortened: as §1
binder,measurement,setting,value
B1,glycan array binding signal (z-score),Gal(b1-4)Glc,-0.352
same,glycan array binding signal (z-score),Gal(b1-4)Glc6S,0.814
same,glycan array binding signal (z-score),Gal(b1-4)GlcNAc,-0.655
same,glycan array binding signal (z-score),[1],-0.151
same,glycan array binding signal (z-score),Gal(b1-4)GlcNAc(b1-2)Man,1.61
same,glycan array binding signal (z-score),[2],-0.54
same,glycan array binding signal (z-score),[3],-0.914
same,glycan array binding signal (z-score),[4],0.927
same,glycan array binding signal (z-score),[5],0.521
same,glycan array binding signal (z-score),[6],-0.448
same,glycan array binding signal (z-score),[7],-1.36
same,glycan array binding signal (z-score),[8],-0.694
same,glycan array binding signal (z-score),[9],-0.687
same,glycan array binding signal (z-score),[10],0.492
same,glycan array binding signal (z-score),[11],-0.401
same,glycan array binding signal (z-score),[12],-0.283
same,glycan array binding signal (z-score),[13],0.564
same,glycan array binding signal (z-score),[14],0.947
same,glycan array binding signal (z-score),[15],-0.163
same,glycan array binding signal (z-score),[16],0.62
same,glycan array binding signal (z-score),[17],-0.053
same,glycan array binding signal (z-score),[18],-0.297
same,glycan array binding signal (z-score),[19],-0.385
same,glycan array binding signal (z-score),[20],1.01
same,glycan array binding signal (z-score),[21],-0.162
same,glycan array binding signal (z-score),[22],-0.847
same,glycan array binding signal (z-score),[23],-0.582
same,glycan array binding signal (z-score),[24],-1.17
same,glycan array binding signal (z-score),[25],2.07
same,glycan array binding signal (z-score),[26],0.065

# Source: the supplement of paper PMC8728848
